# From PubChem BioAssay AID2685 (National Center for Advancing Translational Sciences (NCATS), 2010)
# This is one part of the list. These are further read-outs of the screen, such as a control signal, another cell line or another target. No call is given for them. The list favours compounds with an active or inconclusive main result. Words in brackets tell the shape of the fitted curve; partial curves, single points and poor fits give uncertain potencies.
# Assay: qHTS Assay for Lipid Storage Modulators in Drosophila S3 Cells;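 on cell number change: cells counted by Cell Tracker Red CMTPX staining in the red channel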
# Settings: BODIPY lipid droplet fluorescence, 18-24 h; for cell number change: measured here: cell count max response, cells fed with added oleic acid
# Method in brief: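 Laser-scanning cytometry quantifies lipid droplet accumulation (500–530 nm total intensity; droplet/cell object ratio) in oleic acid-fed (400 uM added) Drosophila S3 cells treated with a concentration series. 20 uM Triacsin C defined 100% inhibition.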
# [1] = measured here: lipid fluorescence (Fed channel) AC50, cells fed with added oleic acid
# [2] = measured here: cell number channel AC50, cells fed with added oleic acid
SMILES,cell number change,AC50 [1],AC50 [2]
CCC(C)(C(=O)NC1CCCCC1)N(C)C(=O)c1ccc2c(c1)OCO2 (stereo not drawn),16.4%,"0.58 µM [rising, single point]",–
CCn1c(=O)c(C(=O)NCc2ccccn2)c(O)c2ccccc21,-11%,"1.03 µM [rising, partial curve]",–
CC1CC(=O)N(CC(=O)Nc2cccc(F)c2)c2ccccc2S1(=O)=O (stereo not drawn),-36.8%,–,"29.1 µM [falling, single point]"
CN(C)S(=O)(=O)c1ccc(N2CCCC2)c(C(=O)N2CCN(S(=O)(=O)c3cccc(F)c3)CC2)c1,28.5%,–,–
CCCCOc1ccc2c(C)cc(=O)oc2c1OCCCC,-29.2%,"29.1 µM [falling, single point]",–
Cc1c(CC(=O)N[C@@H](C)C(=O)O)c(=O)oc2c(C)c3occ(-c4ccccc4)c3cc12,27%,"4.11 µM [rising, partial curve, poor fit]",–
O=C(Nc1nc(-c2ccccc2)cs1)C1CCCCN1S(=O)(=O)c1ccc(Cl)cc1 (stereo not drawn),12.1%,"0.291 µM [rising, partial curve, poor fit]",–
COc1ccc(-n2nc(C(=O)NCC(=O)N3CCN(Cc4ccc5c(c4)OCO5)CC3)c3ccccc3c2=O)cc1OC,62.3%,–,"25.9 µM [rising, single point]"
CCOC(=O)C(Cc1ccc(NC(=O)/C(=C/c2ccccc2)NC(=O)c2ccccc2)cc1)N1C(=O)c2ccccc2C1=O (stereo not drawn),-2.62%,"3.66 µM [falling, full curve]",–
CCSc1nc2nn(-c3ccccc3)c(=O)c-2c2n1CCCCC2,38.2%,–,–
CC(=O)c1sc(NC(=O)C2CCN(C(=O)c3ccc(F)cc3)CC2)nc1-c1ccccc1,-50%,–,"0.058 µM [falling, full curve]"
Cc1ccc(NC(=O)CCN2C(=O)NC3(CCCC3)C2=O)cc1S(=O)(=O)N1CCOCC1,6.38%,"0.00461 µM [rising, full curve, poor fit]",–
COc1ccc(N2CCN(C(CNC(=O)CC(C)(C)C)c3ccc4c(c3)OCO4)CC2)cc1 (stereo not drawn),-7.03%,"11.6 µM [rising, partial curve]",–
CCn1c2ccccc2c2cc(NC(=O)CSc3nnc(-c4ccccc4)o3)ccc21,36.1%,"3.66 µM [rising, partial curve]","0.58 µM [rising, full curve, poor fit]"
COCCNc1ccc([N+](=O)[O-])cc1C(=O)NC1CCCc2ccccc21 (stereo not drawn),-0.952%,"29.1 µM [rising, single point]",–
O=C(COC(=O)C1CC1)NCCNC(=O)COC(=O)C1CC1,-18.5%,"2.91 µM [falling, full curve]","2.91 µM [falling, single point]"
O=C(CCSc1nnc(-c2ccncc2)o1)Nc1ccccc1,-85.1%,–,"23.1 µM [falling, partial curve]"
CCCN1CCN(C(=O)C2CCN(S(=O)(=O)c3c(C)noc3/C=C/c3ccc(C)cc3)CC2)CC1,25.1%,"6.51 µM [falling, single point]","2.06 µM [rising, full curve, poor fit]"
CC(OC(=O)c1ccc2c(c1)OCCO2)C(=O)NC1CCCCC1C (stereo not drawn),-50.2%,–,"25.9 µM [falling, single point]"
COc1cc(OC)c(C(=O)OCC(=O)Nc2nnc(-c3ccccc3)o2)cc1OC,19.1%,"0.00517 µM [rising, full curve, poor fit]","0.0116 µM [rising, full curve, poor fit]"

SMILES,cell number change,AC50 [1],AC50 [2]
Cc1ccc(S(=O)(=O)N/N=C/c2cccs2)cc1,-16.1%,"0.58 µM [falling, full curve, poor fit]",–
CCN(C(=O)COC(=O)CCc1c[nH]c2ccccc12)c1c(N)n(Cc2ccccc2)c(=O)[nH]c1=O,-29.9%,"29.1 µM [falling, single point]",–
COc1ccc(S(=O)(=O)Nc2ncccc2C)c2ccccc12,13.1%,"1.46 µM [rising, full curve]",–
C#CCOCCOCCOCCNc1nc(N2CCN(C(=O)[C@H](CCCCN)n3cc(CCCC)nn3)CC2)nc(N2CCN(C(=O)[C@H](CCCCN)n3cc(CCC(=O)O)nn3)CC2)n1,-3.04%,"0.461 µM [falling, single point]",–
[O-]/[N+](=C\c1ccccc1)c1ccccc1,-24%,–,–
COc1ccc(C(=O)C(CCC(CNC(C)(C)C)C(=O)c2ccc(OC)cc2)CNC(C)(C)C)cc1 (stereo not drawn),-1.21%,–,–
CCCCC(CC)C(=O)Oc1ccc(O)c(C(C)(C)C)c1 (stereo not drawn),–,"23.1 µM [falling, partial curve]",–
Cc1ccc(CNC(=O)C(Cc2ccccc2)NS(=O)(=O)c2ccc(Br)s2)cc1 (stereo not drawn),17.4%,"0.00517 µM [rising, full curve, poor fit]",–
O=C(NCC(c1ccco1)N1CCOCC1)c1ccccc1 (stereo not drawn),-3.1%,"29.1 µM [rising, partial curve, poor fit]",–
CC(C)C[C@H]1CN=C(Nc2ccccc2)N1CC1CCC(C)CC1 (stereo partly drawn),-7.78%,"3.26 µM [falling, single point]",–
CCOC(=O)c1nc2ccccc2c(C)c1C,27.3%,"11.6 µM [rising, partial curve]",–
O=C(/C=C/c1ccccc1)c1cc(Br)ccc(=O)c1O,-36%,"20.6 µM [falling, partial curve]","20.6 µM [falling, single point]"
CC(C(=O)Nc1cccc([N+](=O)[O-])c1)N(c1ccccc1)S(C)(=O)=O (stereo not drawn),-9.47%,–,"0.708 µM [falling, full curve]"
c1ccc(CNc2ccc3ccccc3n2)nc1,2.47%,"1.03 µM [falling, full curve]","1.84 µM [falling, partial curve]"
O=C(c1csc2ccccc12)N1CCN(c2ccccn2)CC1,-29.2%,"6.51 µM [rising, single point]",–
O=C(c1cccc2ccccc12)N1CCCCC1,–,"29.1 µM [falling, single point]",–
COCCNc1nnc(SC(C)C(=O)Nc2ccc(-c3nc4ccc(C)cc4s3)cc2)s1 (stereo not drawn),-53.4%,–,"11.6 µM [falling, partial curve]"
CC(OC(=O)C1CCN(S(=O)(=O)c2ccc(Cl)cc2)CC1)C(=O)NC1CCCCC1C (stereo not drawn),21.5%,–,–
CCOC(=O)C1=C(COC(=O)CSc2ccc(Br)cc2)NC(=O)NC1C (stereo not drawn),-17.8%,–,–
CC1CC2(CC(C)(C(=O)CSc3nc4ccccc4s3)OC2=O)C(=O)O1 (stereo not drawn),16.7%,–,–

# Taken from the entries so far (2 entries):
SMILES,cell number change,AC50 [1],AC50 [2]
c1ccc(CNc2ccc3ccccc3n2)nc1,2.47%,"1.03 µM [falling, full curve]","1.84 µM [falling, partial curve]"
O=C(c1csc2ccccc12)N1CCN(c2ccccn2)CC1,-29.2%,"6.51 µM [rising, single point]",–

# More entries

SMILES,cell number change,AC50 [1],AC50 [2]
COc1ccc(-n2c(=S)[nH]c3cc(C(=O)N4CCN(c5ccccc5)CC4)ccc3c2=O)cc1,12.9%,"29.1 µM [falling, single point]",–
CC(=O)Nc1ccc(-c2sc(Nc3cccc4ccccc34)n[n+]2-c2ccccc2)cc1,33.2%,–,"20.6 µM [rising, partial curve]"
Cc1cc(F)ccc1S(=O)(=O)NCC1CC2CCC1C2 (stereo not drawn),-17.1%,"1.46 µM [falling, partial curve, poor fit]",–
Cc1ccccc1NC(=O)C(=O)NCC1CCCN1S(=O)(=O)c1cccs1 (stereo not drawn),–,–,"3.66 µM [rising, partial curve, poor fit]"
CN1/C(=C/C=C(C#N)C#N)C=Cc2ccccc21,-46.1%,"23.1 µM [falling, partial curve, poor fit]","23.1 µM [falling, partial curve, poor fit]"
c1cncc(N=c2scc(-c3cccc4ccccc34)n2CCCn2ccnc2)c1,31.6%,"6.51 µM [rising, single point]","2.31 µM [rising, full curve]"
COc1cc(/C=C/C(=O)OCC(=O)Nc2ccc(C)cc2[N+](=O)[O-])ccc1O,-40.9%,–,"7.31 µM [falling, partial curve]"
Cc1ccc(C2OC(=O)C=C2c2ccccc2)cc1 (stereo not drawn),-24.4%,–,–
CCOC(=O)CC(=O)Nc1ccn[nH]1,24.2%,–,"0.731 µM [falling, single point]"
C=CCOC(=O)C1=C(C)NC(=O)NC1c1ccc(OCC)cc1 (stereo not drawn),32.7%,–,"16.4 µM [rising, single point]"
O=C(CN(C(=O)c1csnn1)c1cccc(C(F)(F)F)c1)NC1CCCC1,26.9%,"0.116 µM [rising, single point]",–
CCc1cccc(NC(=O)CSc2nc3c(c(=O)[nH]2)CCCC3)c1,14%,"3.26 µM [rising, single point]",–
Cc1ccc(S(=O)(=O)n2ccc(-c3cccc(OCc4c(F)cccc4Cl)c3)n2)cc1,43.4%,"11.6 µM [rising, partial curve]","16.4 µM [rising, partial curve, poor fit]"
COc1ccc(CCNC(=O)CCCc2ccccc2)cc1,33.6%,–,"0.731 µM [rising, full curve, poor fit]"
O=C(NCC1CCN(C(=O)c2c(F)c(F)c(F)c(F)c2F)CC1)c1c(F)c(F)c(F)c(F)c1F,-7.51%,"0.146 µM [falling, partial curve, poor fit]",–
CCN(Cc1nc2cc(Cl)ccc2c(=O)[nH]1)C(=O)c1cc(C2CC2)nn1-c1ccccc1,-16.3%,–,–
c1ccc(CCNc2ncnc3c2cnn3-c2ccccc2)cc1,-20%,"29.1 µM [falling, single point]",–
CC(Sc1nc(-c2ccccc2)cc(C(F)(F)F)n1)C(=O)Nc1sc2c(c1C(N)=O)CCC2 (stereo not drawn),8.73%,"0.116 µM [rising, full curve, poor fit]",–
